Measured values: PubChem BioAssay AID2253 (Southern Research Specialized Biocontainment Screening …, 2010)
In all, about 2,200 compounds went through this assay and about 1,300 (59%) were called active. The rule behind the calls is not given here. The set was probably picked from earlier hits. This is a selection; strong and weak results do not stand in their true shares. Entries with a potency or affinity are not part of this list.

Test: human monocytic cell viability reduction – S. typhimurium screen hits, cytotoxicity control for Salmonella PhoP regulon inhibitors, dose response (AID 2253)
Conditions: THP-1 viability, CellTiter-Glo luminescence, 72 h; at 50 µM (top of the series)
For `CN(C)[C@@H]1C(=O)C(C(N)=O)=C(O)[C@@]2(O)C(=O)C3=C(O)c4c(O)cccc4[C@@](C)(O)C3[C@H](O)C12` (stereo partly specified), the viability was inactive: 84.5%.
